Measured values taken from publication PMC3777959.
Results are given in words; binding and its absence hold for the method and conditions named. Binding seen in cells or lysates may run through a third protein. Some results given as binding are weak or reduced against the parent protein; the word gives no strength.

Chains of the proteins cited; added tags and fusions are not shown.
UniProt Q9Y266: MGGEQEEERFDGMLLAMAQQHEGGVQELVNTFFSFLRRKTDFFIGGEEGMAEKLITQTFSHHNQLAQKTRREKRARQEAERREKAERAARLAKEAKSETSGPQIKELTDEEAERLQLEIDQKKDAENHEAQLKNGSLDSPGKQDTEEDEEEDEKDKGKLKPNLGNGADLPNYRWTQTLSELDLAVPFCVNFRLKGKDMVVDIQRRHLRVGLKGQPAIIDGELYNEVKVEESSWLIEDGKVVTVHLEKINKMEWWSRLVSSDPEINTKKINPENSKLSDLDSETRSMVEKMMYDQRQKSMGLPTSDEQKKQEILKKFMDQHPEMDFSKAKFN
UniProt O15379: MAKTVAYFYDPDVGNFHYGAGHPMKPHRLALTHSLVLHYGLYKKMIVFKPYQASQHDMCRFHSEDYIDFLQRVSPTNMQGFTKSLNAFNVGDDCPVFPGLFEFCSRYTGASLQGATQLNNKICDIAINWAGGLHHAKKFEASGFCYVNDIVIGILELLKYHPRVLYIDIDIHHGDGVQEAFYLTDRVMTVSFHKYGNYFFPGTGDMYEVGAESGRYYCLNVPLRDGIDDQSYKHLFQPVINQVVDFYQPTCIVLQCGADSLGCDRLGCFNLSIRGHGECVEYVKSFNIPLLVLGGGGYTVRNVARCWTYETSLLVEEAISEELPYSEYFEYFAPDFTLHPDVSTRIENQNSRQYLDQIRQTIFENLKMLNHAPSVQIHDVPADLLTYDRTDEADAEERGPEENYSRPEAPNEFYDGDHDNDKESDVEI
UniProt P53350: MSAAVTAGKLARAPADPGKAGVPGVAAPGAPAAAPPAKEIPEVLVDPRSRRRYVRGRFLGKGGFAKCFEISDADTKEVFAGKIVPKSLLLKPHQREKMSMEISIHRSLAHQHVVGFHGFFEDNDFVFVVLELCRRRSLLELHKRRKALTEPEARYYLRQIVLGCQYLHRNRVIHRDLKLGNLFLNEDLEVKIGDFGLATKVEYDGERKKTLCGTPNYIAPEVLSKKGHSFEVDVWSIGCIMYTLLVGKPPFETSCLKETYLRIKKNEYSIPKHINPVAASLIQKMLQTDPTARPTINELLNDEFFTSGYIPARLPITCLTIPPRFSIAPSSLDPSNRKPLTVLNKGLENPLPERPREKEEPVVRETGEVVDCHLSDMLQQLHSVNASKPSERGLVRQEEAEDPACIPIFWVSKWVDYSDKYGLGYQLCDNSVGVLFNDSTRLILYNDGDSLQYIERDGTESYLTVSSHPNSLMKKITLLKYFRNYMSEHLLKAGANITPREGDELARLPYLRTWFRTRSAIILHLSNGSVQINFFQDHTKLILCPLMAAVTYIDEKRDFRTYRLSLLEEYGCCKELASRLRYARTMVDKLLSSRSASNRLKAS

Tests used:
EGFP-NudC WT (human) = EGFP-NudC WT (human) (UniProt Q9Y266); experiment: co-IP; HeLa cells transfected with EGFP-NudC WT, K39R or K39Q for 24 h, enriched in mitosis (thymidine and nocodazole block and release); lysates (2 mg) immunoprecipitated with GFP antibody, blotted for HDAC3, Plk1 and GFP; IgG as antibody control
[1] = biological target: histone deacetylase HDAC3 (human (endogenous in HeLa)) (UniProt O15379); experiment: co-IP; lysates (2 mg) of HeLa cells synchronised in S, G2, early mitosis (P), late mitosis (A) and G1; immunoprecipitated with a monoclonal anti-HDAC3 antibody, blotted for NudC (R2 antibody); IgG as antibody control

Substance | binding (EGFP-NudC WT (human)) | binding [1]
polo-like kinase 1 (Plk1) (from UniProt P53350 1-603) (enzyme) | binds | –
Nuclear distribution protein C (NudC) (from UniProt Q9Y266 1-331) | – | binds
